# Article PMC6794486
# Protein sequences, listed by entry. Tags and fused reporters are not part of them. Lines headed by an entry give the natural chain unless they say otherwise; changes in a name come on top.
# UniProt G4MSB4: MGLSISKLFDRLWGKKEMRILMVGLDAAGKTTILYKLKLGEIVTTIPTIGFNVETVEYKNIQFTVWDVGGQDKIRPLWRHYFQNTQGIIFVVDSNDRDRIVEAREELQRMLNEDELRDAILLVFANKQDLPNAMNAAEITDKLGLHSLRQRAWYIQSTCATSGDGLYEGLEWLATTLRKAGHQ
# UniProt G4N3J3: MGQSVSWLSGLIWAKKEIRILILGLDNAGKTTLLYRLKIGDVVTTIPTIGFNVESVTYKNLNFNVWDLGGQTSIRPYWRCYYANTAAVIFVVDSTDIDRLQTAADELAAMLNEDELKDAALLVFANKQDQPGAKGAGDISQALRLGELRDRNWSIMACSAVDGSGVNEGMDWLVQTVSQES
# Results are given in words; binding and its absence hold for the method and conditions named. In cells and extracts the contact can be indirect. A result given as binding can be weak or reduced; the word gives no strength.
# Molecular target: MoArf1-GFP (Magnaporthe oryzae) (UniProt G4MSB4)
# Test: co-IP
substance,measurement,value
MoArl1-S (from UniProt G4N3J3),binding,binds
